The list shows only some results of the screen, not a fair sample: it is rich in T/C values a quarter to a half above the control, in often repeated tests (any T/C) and in doses without a T/C. Further doses and runs are listed elsewhere. T/C is the treated group as % of the vehicle group. Some doses have a count of surviving animals in place of a T/C: the source files T/C as zero there, which appears to mark a toxic dose or a test without result, not a measured value. Some doses without a T/C left all or most animals alive at the check, yet need not have been tolerated: the source hardly ever lists a survival T/C far under the control, and the zero likely stands for such cases as well. Counts of survivors are from the toxicity check (mostly the fifth day) where no day follows; animals may have died later. Schedules are NCI's codes, read here as Q, the interval in days (D) or hours (H), X, the number of doses. For survival time, this PubChem deposit counts one and a half times the control or more as active, and values a quarter to a half above the control carry no call in these data; other NCI protocols may use other cut-offs.
System: CD2F1 mice, L1210 leukemia ip, survival T/C
Test: NCI In Vivo Anticancer Drug Screen. Data for tumor model L1210 Leukemia (intraperitoneal) in CD2F1 (CDF1) mice
Details: T/C endpoint: mean survival time, higher T/C = longer survival
Outline: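 Vehicle-treated tumor-bearing mice served as controls (C) for compound-treated mice (T). Reported figure is T divided by C.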

[1] = dose: 100.0 mg/kg/injection, schedule: Q01DX009 (ip), vehicle: saline with Tween-80
[2] = dose: 200.0 mg/kg/injection, schedule: Q01DX009 (ip), vehicle: saline with Tween-80
[3] = dose: 25.0 mg/kg/injection, schedule: Q01DX009 (ip), vehicle: saline with Tween-80
[4] = dose: 400.0 mg/kg/injection, schedule: Q04DX003 (ip), vehicle: saline with Tween-80

Q: What does the source list for C[n+]1ccccc1/C=C/c1cccc(O)c1?
A: survivor count (dose: 75.0 mg/kg/injection, schedule: Q01DX001 (ip), vehicle: other): 0 of 6; survivor count (dose: 150.0 mg/kg/injection, schedule: Q01DX001 (ip), vehicle: other): 0 of 6; survivor count (dose: 300.0 mg/kg/injection, schedule: Q01DX001 (ip), vehicle: other): 0 of 6

Q: Which survivor count (dose: 200.0 mg/kg/injection, schedule: Q04DX003 (ip), vehicle: saline sonified) does the source give for CC1(C)N=C(N)N=C(N)N1c1ccc(CCCCc2ccc(Cl)c(S(=O)(=O)F)c2)c(Cl)c1 here?
A: The survivor count was 0 of 6.

Q: And the survivor count (dose: 400.0 mg/kg/injection, schedule: Q04DX003 (ip), vehicle: saline sonified)?
A: The survivor count was 0 of 6.

Q: For C/C(=N\N)c1ccc(Cl)cc1, which survivor count [1] is on record?
A: Its survivor count is 1 of 6.

Q: And the survivor count [2]?
A: Its survivor count is 0 of 6.

Q: And the survivor count (dose: 400.0 mg/kg/injection, schedule: Q01DX009 (ip), vehicle: saline with Tween-80)?
A: The survivor count was 0 of 6.

Q: Which results are given for COc1ccc(OC)c2c1CCC(O)(C#N)C2 (stereo not drawn)?
A: survivor count (dose: 50.0 mg/kg/injection, schedule: Q01DX009 (ip), vehicle: water): 0 of 6; survivor count (dose: 100.0 mg/kg/injection, schedule: Q01DX009 (ip), vehicle: water): 0 of 6; survivor count (dose: 200.0 mg/kg/injection, schedule: Q01DX009 (ip), vehicle: water): 0 of 6

Q: COC(=O)/C=N/NS(=O)(=O)c1cccc(N)c1 was tested. Which survivor count (dose: 400.0 mg/kg/injection, schedule: Q04DX003 (ip), vehicle: water) did it give?
A: Its survivor count is 1 of 6.

Q: For N=c1c2ncn(C3CCCC3)c2ncn1Cc1ccccc1, which survivor count (dose: 100.0 mg/kg/injection, schedule: Q01DX001 (ip), vehicle: carboxymethylcellulose (CMC)) is on record?
A: Its survivor count is 0 of 6.

Q: And the survivor count (dose: 200.0 mg/kg/injection, schedule: Q01DX001 (ip), vehicle: carboxymethylcellulose (CMC))?
A: The survivor count was 0 of 6.

Q: What about the survivor count (dose: 400.0 mg/kg/injection, schedule: Q01DX001 (ip), vehicle: carboxymethylcellulose (CMC)) of the same compound?
A: The survivor count was 0 of 6.

Q: With Cn1nc(-c2ccccc2)nc1[N+](=O)[O-] as the compound, how does the T/C [3] read?
A: Its T/C is 125 % of control.

Q: How did the survivor count [1] turn out when CCCCCCCCCCCCCCCC(=O)N(CCCCN(CCCN(C)C)C(=O)CCCCCCCCCCCCCCC)CCCN(C)C was run?
A: The survivor count was 0 of 6.

Q: How did the survivor count [4] turn out when COc1ccc(CNCCCC2C3CCC(C3)C2CN)cc1 (stereo not drawn) was run?
A: The survivor count was 6 of 6.

Q: What does the source list for O=C[CH2][Hg][Cl]?
A: survivor count (dose: 3.13 mg/kg/injection, schedule: Q01DX009 (ip), vehicle: saline with Tween-80): 3 of 3; survivor count (dose: 6.25 mg/kg/injection, schedule: Q01DX009 (ip), vehicle: saline with Tween-80): 0 of 3; survivor count (dose: 12.5 mg/kg/injection, schedule: Q01DX009 (ip), vehicle: saline with Tween-80): 0 of 3; survivor count [3]: 0 of 3; survivor count (dose: 50.0 mg/kg/injection, schedule: Q01DX009 (ip), vehicle: saline with Tween-80): 0 of 3

Q: For COc1cc(CC2c3cc(OC)c(OC)cc3CCN2C)c(Oc2cc3c(cc2OC)-c2c(OC)c(OC)c(OC)c4c2C(C3)N(C)CC4)cc1OC (stereo not drawn), which survivor count [2] is on record?
A: Its survivor count is 3 of 6.

Q: For CCCCCCCCCCCCN(CN1C(=O)c2ccccc2C1=O)CN1C(=O)c2ccccc2C1=O, which survivor count [2] is on record?
A: Its survivor count is 5 of 6.

Q: CCOC(=O)c1c(C)nc(C)c(C(=O)OCC)c1-c1ccc(N(C)C)cc1 was tested. Which survivor count [4] did it give?
A: Its survivor count is 5 of 6.

Q: Which survivor count (dose: 100.0 mg/kg/injection, schedule: Q01DX001 (ip), vehicle: saline with Tween-80) does the source give for N=C(N)N(CCS)CC(=O)O here?
A: Its survivor count is 3 of 3.

Q: Which survivor count (dose: 400.0 mg/kg/injection, schedule: Q01DX001 (ip), vehicle: saline) does the source give for Clc1ccc2c(Cl)c3c(nc2c1)CCCC3 here?
A: The survivor count was 2 of 4.

Q: Which results are given for Nc1ccn([C@@H](C=O)O[C@@H](C=O)CO)c(=O)n1?
A: T/C (dose: 50.0 mg/kg/injection, schedule: Q01DX009 (ip), vehicle: saline): 141 % of control; survivor count (dose: 200.0 mg/kg/injection, schedule: Q01DX009 (ip), vehicle: saline): 2 of 6; T/C (dose: 280.0 mg/kg/injection, schedule: Q01DX001 (ip), vehicle: saline): 137 % of control; survivor count (dose: 560.0 mg/kg/injection, schedule: Q01DX001 (ip), vehicle: saline): 2 of 7

Q: Which survivor count (dose: 100.0 mg/kg/injection, schedule: Q01DX009 (ip), vehicle: saline) does the source give for O=C(O)c1ccc(P(=O)(O)O)cc1[N+](=O)[O-] here?
A: The survivor count was 6 of 6.
